In PubChem BioAssay AID652054 (National Center for Advancing Translational Sciences (NCATS), 2013):
Screen size: about 360,000 compounds; about 9,100 (2.5%) were called active. The inconclusive results got no clear call from the source; some entries with a clear call stand among them for comparison. Rule as the data show it: active = max response below about -50%; inconclusive = no clear call, values can overlap the other calls; inactive = above that.

Amino acid sequences for entries named in this document (tags omitted).
UniProt P35462, whole entry, looked up: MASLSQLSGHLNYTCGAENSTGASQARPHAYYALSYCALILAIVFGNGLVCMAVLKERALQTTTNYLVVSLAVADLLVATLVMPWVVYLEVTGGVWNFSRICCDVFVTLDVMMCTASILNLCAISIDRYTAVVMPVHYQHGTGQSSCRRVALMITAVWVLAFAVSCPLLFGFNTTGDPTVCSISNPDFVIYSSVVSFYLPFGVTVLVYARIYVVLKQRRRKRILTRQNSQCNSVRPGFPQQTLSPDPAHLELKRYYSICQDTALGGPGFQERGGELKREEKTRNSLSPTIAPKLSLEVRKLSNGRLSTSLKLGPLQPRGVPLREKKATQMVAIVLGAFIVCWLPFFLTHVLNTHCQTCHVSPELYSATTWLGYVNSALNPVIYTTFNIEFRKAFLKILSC

These compounds were tested against D(3) dopamine receptor (Homo sapiens) (UniProt P35462) (assay: qHTS of D3 Dopamine Receptor Antagonist: qHTS). Conditions: D3R cells, DiscoveRx beta-arrestin luminescence, antagonist mode; hits give low values.
How it was run: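 Cells plated overnight at 1500 cells/well, then exposed to library compounds with dopamine controls for 90 minutes at 37 degrees C. DiscoveRx reagent added for 30–60 minutes at room temperature; luminescence read, quantitative HTS format.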
% is scaled to controls: 0 for no effect and ±100 for the full control effect.

SMILES | max response, negative = inhibition
O=C(Nc1ccc(N2CCN(C(=O)c3ccco3)CC2)cc1)c1ccc([N+](=O)[O-])cc1Cl | inactive: 1.8%
O=C(Cn1ncc2c(=O)oc3ccccc3c21)N1CCN(c2ccccn2)CC1 | inconclusive: -35.3%
CCNC(=O)C1(C)CCN(C(=O)c2ccc3c(c2)CCO3)C1 (stereo unspecified) | active: -50.8%
O=C(/C=C/c1ccc(Cl)cc1)N1CCN(Cc2ccccc2)CC1 | inconclusive: -48.6%
O=C(O)Cc1ccc(NS(=O)(=O)c2ccc3c(c2)OCCO3)cc1 | inactive: 18.9%
O=[N+]([O-])c1cc(Cl)cc(/C=N/Nc2nc3ccccc3s2)c1O | active: -60.2%
COc1ccc(CNC(=O)Nc2ccc(C)cc2)cc1 | inconclusive: -32.5%
Cc1ccc(N=Cc2cc(Br)cc(Cl)c2O)cc1 | active: -64.7%
CC(C)Cn1nc(NS(=O)(=O)c2ccccc2)c2cc3ccccc3nc21 | inconclusive: -43.8%
CCN1CCCC(OC(=O)C(c2ccccc2)c2ccccc2)C1 (stereo unspecified) | active: -52.6%
NS(=O)(=O)c1ccc(-n2nncc2C23CC4CC(CC(C4)C2)C3)cc1 | inactive: -16.1%
Cc1nn(CC(=O)NN)c(C)c1Br | inconclusive: -31%
CN(CC(=O)Nc1cc(S(=O)(=O)N2CCCC2)ccc1Cl)Cc1cccs1 | inconclusive: -46.4%
CCOC(=O)N1C2CCC(C2)N1C(=O)OCC | inconclusive: -34.8%
S=C(Nc1ccc(Cl)cc1)NC1CCN(Cc2ccccc2)CC1 | active: -60.1%
COC(=O)c1ccc(C(=O)OC)c(-n2c(=O)c3ccccc3c3ccccc3c2=O)c1 | inconclusive: -38.3%
CC(C)CNC(=S)NNC(=O)c1csc2ccccc12 | active: -66.1%
COc1ccccc1N1CCN(C2CCCN(S(=O)(=O)c3ccc(C)cc3)C2)CC1 (stereo unspecified) | active: -80.1%
NCCCCCc1nnc(SCc2ccc(Cl)cc2Cl)o1 | inconclusive: -43.6%

SMILES | max response, negative = inhibition
O=C(O)CSc1cc(NS(=O)(=O)c2cccc([N+](=O)[O-])c2)c2ccccc2c1O | active: -50.8%
Cc1ccccc1-c1cc(C(=O)NCc2ccco2)nn1CC1CC(c2cccc([N+](=O)[O-])c2)=NO1 (stereo unspecified) | inconclusive: -41.7%
Cc1ccc(-c2csc3ncnc(N4CCN(C)CC4)c23)cc1C | inconclusive: -37.8%
COc1ccc(Cn2nnnc2CN2CCc3ccccc3C2)cc1 | inconclusive: -46.2%
CCOc1ccc(-n2ccnc2SCC(=O)NCc2ccc3c(c2)OCO3)cc1 | inconclusive: -42.9%
C/C(O)=c1/cnc2nc3ccccc3n2c1=O | inactive: 1.27%
Cc1ccc2c(C)c(C(=O)N3CCCC(C(N)=O)C3)oc2c1C (stereo unspecified) | inconclusive: -44.2%
Cc1cccc(NCc2n[nH]c(=S)n2-c2ccccc2)c1 | inconclusive: -37.7%
CC(C)Cn1c(N)c(C(=O)COC(=O)c2cccc(F)c2)c(=O)n(C)c1=O | inconclusive: -31.4%
COc1ccccc1NC(=O)CSc1nnc(C2CCCCC2)n1C | inconclusive: -42.2%
O=C(CC[C@H]1O[C@@H](n2cnc3c(NC(=O)c4ccccc4)ncnc32)[C@H](O)[C@@H]1O)N[C@@H](CO)c1ccccc1 | inactive: -12.5%
CC1=CC(=O)C(C(C)C)=C/C1=N\OC(=O)c1cccc2nc(C)oc12 | inconclusive: -36.1%
COc1ccc(C(NC(=O)C2CCN(Cc3cc(OC)cc(OC)c3)CC2)c2ccccn2)cc1 (stereo unspecified) | inconclusive: -48%
O=C(NCCN1CCOCC1)c1ccc(Cl)cc1 | active: -68.8%
Cc1ccc(S(=O)(=O)N2CCCCC2CCNC(=O)C(=O)NCc2ccccc2)cc1 (stereo unspecified) | inconclusive: -31.7%
CCc1nc2ccc(C(=O)NCCOc3ccc(OC)cc3)cn2c1N(CC)Cc1ccc(OC)c(OC)c1 | inconclusive: -31.9%
CCOC(=O)c1c(C)[nH]c(C)c1S(=O)(=O)Nc1ccc(CN2CCCCC2)cc1 | inconclusive: -47%
Cc1cc(NCC2CCCCC2)nc2ccccc12 | inconclusive: -32.6%
O=S(=O)(c1cccc(S(=O)(=O)N2CCC(Cc3ccccc3)CC2)c1)N1CCOCC1 | inconclusive: -49.2%

Two entries from above, with tabs:
SMILES	max response, negative = inhibition
COc1ccc(C(NC(=O)C2CCN(Cc3cc(OC)cc(OC)c3)CC2)c2ccccn2)cc1 (stereo unspecified)	inconclusive: -48%
O=C(NCCN1CCOCC1)c1ccc(Cl)cc1	active: -68.8%

Following part

SMILES | max response, negative = inhibition
Cc1ccc(C(=O)CN(C(=O)c2ccc(Cl)cc2)N2C(=O)c3ccccc3C2=O)cc1 | inconclusive: -38.4%
CCS(=O)(=O)c1ccc2oc(SCC(=O)NCCC3=CCCCC3)nc2c1 | active: -51%
O=C(Cc1ccc2c(c1)OCO2)NN=Cc1ccc([N+](=O)[O-])o1 | inconclusive: -33%
c1ccc2cc(CNCc3cccc4ccccc34)ccc2c1 | inconclusive: -34.8%
C=C1C(=O)OC2C=C(CO)C3OC3C3OC3(C)CC(OC(=O)/C(=C/C)COC(C)=O)C12 (stereo unspecified) | active: -81.1%
CSc1ncccc1C(=O)OCC(=O)c1cc(C)n(C)c1C | inconclusive: -30.2%
COc1ccccc1OCC(=O)Nc1ccc(C(N)=O)cc1 | inconclusive: -31.8%
Cc1ccc2c(c1)N(CC(=O)N1CCOCC1)C(=O)CO2 | inconclusive: -31%
O=C(CNC(=O)c1ccc2c(c1)OCO2)N/N=C(Br)/C=C/c1ccccc1 | inconclusive: -33.6%
O=C(NCC1CC1)C1(S(=O)(=O)c2ccccc2)CC=CC1 | inconclusive: -38.3%
C#Cc1ccc([C@@H]2C=C(C(=O)N3CCOCC3)O[C@H](OCCCCO)C2)cc1 | inactive: 17.6%
COC(=O)c1sc(N)c(C(=O)OC)c1Cn1ncc(Cl)c(Cl)c1=O | inconclusive: -46.7%
O=C(Nc1ccn(CCCN2CCN(c3ncccn3)CC2)c(=O)n1)OCc1ccccc1 | inconclusive: -33.9%
O=C(Nc1cccc(NC(=O)c2cccs2)c1)c1ccc([N+](=O)[O-])o1 | inactive: -4.88%
COc1ccc(SN=C2C(C)=CC(=O)C=C2C)cc1 | inconclusive: -32.3%
CC(C)CNC(=S)N1CCN(C)CC1 | inconclusive: -48.8%
Cc1ccc(-c2nc3ccc(Cl)cn3c2Cc2cccc(Cl)c2)cc1 | inactive: 5.84%
CCOc1ccc(NC(=O)N2CC=C(n3c(=O)[nH]c4ccccc43)CC2)cc1 | active: -51.2%
